Measurements reported in PubChem BioAssay AID493246 (Drosophila RNAi Screening Center, 2011).
Aim: 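Genes fly cells need to grow and stay alive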 (primary screen). Cells: Drosophila Kc and S2R+ cells. Knock-down reagent: long dsRNA against Drosophila genes. Measurement: 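Raw, unnormalised count of remaining cells in each well; per-plate z-scores of cell number underlie the calls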. Direction: Kc cell number and S2R+ cell number: higher = more cells remaining. Hit rule: 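Active when the per-plate z-score of cell number is 3 or more in the direction of fewer cells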.
The deposit covers about 21,000 reagents; shown is a random part of those that have a named target and a result. Over the whole deposit, 429 (2%) got an active call. 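Values are raw and not normalised between plates; calls rest on per-plate z-scores that were not deposited.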 Names joined by + are all predicted targets of the reagent. Not stated in the record: the amount of reagent, the time to read-out.

Target gene	dsRNA	Kc cell number, rep 1	Kc cell number, rep 2	S2R+ cell number, rep 1	S2R+ cell number, rep 2	Call
CG42588	DRSC09820	1.51e6	1.43e6	1.32e6	1.45e6	inactive
CG42516 + Pbp49	DRSC06073	1.29e6	1.36e6	1.09e6	1.12e6	inactive
Lgr3	DRSC15704	1.63e6	1.60e6	1.01e6	1.13e6	inactive
Lgr3	DRSC15706	1.62e6	1.75e6	9.86e5	1.12e6	inactive
slbo	DRSC04716	1.55e6	1.64e6	1.33e6	1.36e6	inactive
crol	DRSC03514	1.39e6	1.47e6	1.07e6	1.15e6	inactive
CG30334	DRSC05345	1.46e6	1.44e6	1.00e6	1.10e6	inactive
HINT1	DRSC00548	1.74e6	1.74e6	1.13e6	1.29e6	inactive
CR11235	DRSC20480	1.60e6	1.58e6	1.07e6	1.25e6	inactive
Phb1	DRSC03563	1.33e6	1.37e6	1.06e6	1.09e6	inactive
hd	DRSC12316	1.48e6	1.55e6	1.21e6	1.39e6	inactive
CG31178	DRSC14590	1.39e6	1.38e6	1.14e6	1.28e6	inactive
CG11041	DRSC06025	1.57e6	1.57e6	1.21e6	1.36e6	inactive
SkpF + CG5357 (retired record)	DRSC04120	1.47e6	1.57e6	1.25e6	1.24e6	inactive
CR31700	DRSC03682	6.09e5		8.76e5		inactive
CG31115	DRSC13692	1.27e6	1.51e6	1.15e6	1.15e6	inactive
TwdlU	DRSC12224	1.52e6	1.56e6	1.46e6	1.55e6	inactive
pigs	DRSC17472	1.12e6	1.48e6	1.14e6	1.20e6	inactive
pigs	DRSC18334	1.55e6	1.51e6	1.02e6	1.15e6	inactive
pigs	DRSC18335	1.53e6	1.50e6	1.00e6	1.08e6	inactive
CG6180	DRSC02937	1.37e6	1.41e6	1.05e6	1.11e6	inactive
nub	DRSC01260	1.53e6	1.57e6	1.02e6	1.15e6	inactive
nub	DRSC02498	1.47e6	1.49e6	1.13e6	1.33e6	inactive
nub	DRSC02499	1.66e6	1.83e6	1.19e6	1.34e6	inactive
nub	DRSC03583	1.45e6	1.47e6	1.17e6	1.23e6	inactive
Dlip2	DRSC12346	1.56e6	1.61e6	1.41e6	1.51e6	inactive
CG13386	DRSC02260	1.57e6	1.59e6	1.26e6	1.43e6	inactive
CycG	DRSC14324	4.75e5		5.81e5		inactive
toc	DRSC00169	1.57e6	1.58e6	1.08e6	1.24e6	inactive
toc	DRSC00171	1.52e6	1.55e6	1.07e6	1.18e6	inactive
toc	DRSC00842	1.29e6	1.32e6	9.88e5	1.09e6	inactive
bdl	DRSC00271	1.41e6	1.33e6	1.13e6	1.26e6	inactive
CG12069	DRSC14470	1.49e6	1.53e6	9.95e5	1.08e6	inactive
CG31344	DRSC16069	1.18e6	1.22e6	1.13e6	1.29e6	inactive
LIMK1	DRSC19811	5.89e5		8.89e5		inactive
spir	DRSC03619	1.55e6	1.66e6	1.32e6	3.32e5	inactive
Ccp84Aa	DRSC12586	1.40e6	1.58e6	1.22e6	1.29e6	inactive
CG15043	DRSC19619	1.60e6	1.62e6	1.16e6	1.23e6	inactive
CG12470	DRSC18620	1.58e6	1.56e6	1.12e6	1.20e6	inactive
CG14052	DRSC17907	1.41e6	1.51e6	1.15e6	1.29e6	inactive
CG14052	DRSC18192	1.63e6	1.82e6	1.12e6	1.19e6	inactive
CG2617	DRSC02712	1.64e6	1.69e6	1.24e6	3.56e5	inactive
CG5539	DRSC04510	1.54e6	1.65e6	1.38e6	1.43e6	inactive
Or56a	DRSC07495	1.75e6	1.78e6	1.15e6	1.35e6	inactive
Septin5	DRSC06843	1.31e6	1.44e6	1.04e6	1.13e6	inactive
sle	DRSC14557	1.54e6	1.61e6	1.27e6	1.42e6	inactive
Pgant6	DRSC08552	1.36e6	1.35e6	1.03e6	1.06e6	inactive
mms4	DRSC06249	1.62e6	1.64e6	1.32e6	1.46e6	inactive
prage	DRSC17957	1.36e6	1.41e6	1.01e6	1.06e6	inactive
prage	DRSC17958	3.00e5		4.88e5		active
prage	DRSC18490	1.46e6	1.42e6	1.02e6	1.02e6	inactive
prage	DRSC18497	1.46e6	1.42e6	9.88e5	1.11e6	inactive
Mvl	DRSC16752	1.47e6	1.59e6	1.10e6	1.20e6	inactive
S-Lap2	DRSC10628	1.22e6	1.35e6	1.16e6	1.23e6	inactive
CG5555	DRSC15834	1.76e6	1.74e6	1.38e6	1.38e6	inactive
rictor	DRSC20071	1.57e6	1.63e6	1.10e6	1.25e6	inactive
CG14763	DRSC06497	1.62e6	1.57e6	1.34e6	1.54e6	inactive
FIG4	DRSC00515	8.84e5	1.31e6	5.16e5	6.39e5	inactive
Gr28a	DRSC02290	1.56e6	1.47e6	1.20e6	1.38e6	inactive

As entered above.
Under “Kc cell number, rep 1”, rictor [DRSC20071] shows 1.57e6
Entry for Septin5 [DRSC06843] under “Call”: inactive
Under “Call”, sle [DRSC14557] is entered as inactive
For “Kc cell number, rep 2”, pigs [DRSC18334] is entered as 1.51e6
For “Kc cell number, rep 1”, TwdlU [DRSC12224] shows 1.52e6
For “S2R+ cell number, rep 1”, CG14763 [DRSC06497] reads 1.34e6
